Test results: PubChem BioAssay AID270 (DTP/NCI, 2004)
The list shows only some results of the screen, not a fair sample: it is rich in T/C values a quarter to a half above the control, in often repeated tests (any T/C) and in doses without a T/C. Further doses and runs are listed elsewhere. T/C: endpoint of the treated group in % of that of the vehicle group. Schedule codes are those of the source, taken here to give the interval after Q, in days (D) or hours (H), and the number of doses after X. Some entries give survivors of the animals treated and no T/C: the source holds a T/C of zero for them, seemingly a mark for toxic or unscored doses. Some survivor counts are full or nearly so, which does not show that the dose was tolerated: the source hardly ever lists a survival T/C far under the control, and the zero likely stands for such cases as well. Counts of survivors are from the toxicity check (mostly the fifth day) where no day follows; animals may have died later. Some molecules as drawn cover several salts, stereoisomers or complexes of the source; a dose is that of the sample tested. Some entries hold several experiments; the results are listed from low to high. Signs of the kind (2×) say how often a value occurs here. Where survival is the endpoint, this PubChem deposit counts one and a half times the control or more as active, and values a quarter to a half above the control carry no call in these data; other NCI protocols may use other cut-offs. Some T/C values carry the count of animals alive at the toxicity check (mostly the fifth day); without a count, all were alive then.

System: BDF1 mice, s.c. Lewis lung carcinoma, T/C %
Assay: NCI In Vivo Anticancer Drug Screen. Data for tumor model Lewis Lung Carcinoma (subcutaneous) in B6D2F1 (BDF1) mice
Summary of the method: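 The value reflects a ratio in which the treated cohort's survival time or tumour size is compared against mice receiving only vehicle.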

[1] = T/C endpoint: median survival time, dose: 25.0 mg/kg/injection, schedule: Q01DX009 (ip), vehicle: Klucel (hydroxypropylcellulose) (HPC), higher T/C = longer survival
[2] = T/C endpoint: median survival time, dose: 50.0 mg/kg/injection, schedule: Q01DX009 (ip), vehicle: Klucel (hydroxypropylcellulose) (HPC), higher T/C = longer survival
[3] = T/C endpoint: median survival time, dose: 100.0 mg/kg/injection, schedule: Q01DX009 (ip), vehicle: saline, higher T/C = longer survival

`COc1cccc(/C=N/NC(=O)c2ccccc2N2CCCC2)c1O` was tested, and the survivor count (T/C endpoint: median survival time, dose: 12.5 mg/kg/injection, schedule: Q01DX009 (ip), vehicle: olive oil, sesame oil, peanut oil, higher T/C = longer survival) was 9 of 10, the survivor count (T/C endpoint: median survival time, dose: 25.0 mg/kg/injection, schedule: Q01DX009 (ip), vehicle: olive oil, sesame oil, peanut oil, higher T/C = longer survival) was 10 of 10 and the survivor count (T/C endpoint: median survival time, dose: 50.0 mg/kg/injection, schedule: Q01DX009 (ip), vehicle: olive oil, sesame oil, peanut oil, higher T/C = longer survival) was 10 of 10. The survivor count (T/C endpoint: median survival time, dose: 200.0 mg/kg/injection, schedule: Q01DX009 (ip), vehicle: olive oil, sesame oil, peanut oil, higher T/C = longer survival) was 10 of 10 and the survivor count (T/C endpoint: median survival time, dose: 400.0 mg/kg/injection, schedule: Q01DX009 (ip), vehicle: olive oil, sesame oil, peanut oil, higher T/C = longer survival) was 5 of 10.

For `O=C1C2CCCCC2C(=O)N1c1nccs1` (configuration not stated), the survivor count (T/C endpoint: mean tumor weight, dose: 400.0 mg/kg/injection, schedule: Q01DX011 (ip), vehicle: carboxymethylcellulose (CMC), higher T/C = larger tumour) was 2 of 6.

`COc1cc2c[n+](C)c3c4cc5c(cc4ccc3c2cc1OC)OCO5` was tested, and the survivor count (T/C endpoint: median survival time, dose: 40.0 mg/kg/injection, schedule: Q01DX009 (ip), vehicle: water, higher T/C = longer survival) was 10 of 10 and the survivor count (T/C endpoint: median survival time, dose: 80.0 mg/kg/injection, schedule: Q01DX009 (ip), vehicle: water, higher T/C = longer survival) was 10 of 10.

`C=C1C(=O)O[C@@H]2[C@H](O)[C@@H](C)[C@@H]3C=CC(=O)[C@@]3(C)[C@H](OC(=O)C=C(C)C)[C@H]12` was tested, and the survivor count (T/C endpoint: median survival time, dose: 1.25 mg/kg/injection, schedule: Q01DX009 (ip), vehicle: saline with Tween-80, higher T/C = longer survival) was 10 of 10, the T/C (T/C endpoint: median survival time, dose: 2.5 mg/kg/injection, schedule: Q01DX009 (ip), vehicle: Klucel (hydroxypropylcellulose) (HPC), higher T/C = longer survival) was 143 % of control and the survivor count (T/C endpoint: median survival time, dose: 2.5 mg/kg/injection, schedule: Q01DX009 (ip), vehicle: saline with Tween-80, higher T/C = longer survival) was 10 of 10. The T/C (T/C endpoint: median survival time, dose: 5.0 mg/kg/injection, schedule: Q01DX009 (ip), vehicle: Klucel (hydroxypropylcellulose) (HPC), higher T/C = longer survival) was 125 % of control, the survivor count (T/C endpoint: median survival time, dose: 5.0 mg/kg/injection, schedule: Q01DX009 (ip), vehicle: saline with Tween-80, higher T/C = longer survival) was 10 of 10 and the survivor count (T/C endpoint: median survival time, dose: 10.0 mg/kg/injection, schedule: Q01DX009 (ip), vehicle: saline with Tween-80, higher T/C = longer survival) was 9 of 10. The survivor count (T/C endpoint: median survival time, dose: 20.0 mg/kg/injection, schedule: Q01DX009 (ip), vehicle: saline with Tween-80, higher T/C = longer survival) was 6 of 10 and 9 of 10.

For `CC(=O)OCC1CCC(NC(=O)N(CCCl)N=O)CC1` (configuration not stated), the survivor count (T/C endpoint: median survival time, dose: 60.0 mg/kg/injection, schedule: Q01DX001 (ip), vehicle: Klucel (hydroxypropylcellulose) (HPC), higher T/C = longer survival) was 10 of 10 on day 11.

For `COc1cc(NS(C)(=O)=O)ccc1Nc1c2ccccc2nc2ccccc12`, the T/C (T/C endpoint: median survival time, dose: 0.25 mg/kg/injection, schedule: Q01DX009 (ip), vehicle: other, higher T/C = longer survival) was 149 % of control, the T/C (T/C endpoint: median survival time, dose: 1.0 mg/kg/injection, schedule: Q01DX009 (ip), vehicle: other, higher T/C = longer survival) was 139 % of control and the T/C (T/C endpoint: median survival time, dose: 2.0 mg/kg/injection, schedule: Q01DX009 (ip), vehicle: other, higher T/C = longer survival) was 127 % of control. For the same compound, the survivor count (T/C endpoint: median survival time, dose: 4.0 mg/kg/injection, schedule: Q01DX009 (ip), vehicle: other, higher T/C = longer survival) was 10 of 10, the survivor count (T/C endpoint: median survival time, dose: 5.0 mg/kg/injection, schedule: Q01DX011 (ip), vehicle: Klucel (hydroxypropylcellulose) (HPC), higher T/C = longer survival) was 10 of 10 and the survivor count (T/C endpoint: median survival time, dose: 6.25 mg/kg/injection, schedule: Q01DX009 (ip), vehicle: saline, higher T/C = longer survival) was 10 of 10. The survivor count (T/C endpoint: median survival time, dose: 10.0 mg/kg/injection, schedule: Q01DX011 (ip), vehicle: Klucel (hydroxypropylcellulose) (HPC), higher T/C = longer survival) was 10 of 10, the survivor count (T/C endpoint: median survival time, dose: 12.5 mg/kg/injection, schedule: Q01DX009 (ip), vehicle: saline, higher T/C = longer survival) was 10 of 10 and the survivor count (T/C endpoint: median survival time, dose: 12.5 mg/kg/injection, schedule: Q01DX011 (ip), vehicle: Klucel (hydroxypropylcellulose) (HPC), higher T/C = longer survival) was 10 of 10. For the same compound, the survivor count [1] was 9 of 10, the survivor count (T/C endpoint: median survival time, dose: 25.0 mg/kg/injection, schedule: Q01DX009 (ip), vehicle: saline, higher T/C = longer survival) was 10 of 10 and the survivor count (T/C endpoint: median survival time, dose: 25.0 mg/kg/injection, schedule: Q01DX011 (ip), vehicle: Klucel (hydroxypropylcellulose) (HPC), higher T/C = longer survival) was 10 of 10. For the same compound, the survivor count [2] was 9 of 10, the survivor count (T/C endpoint: median survival time, dose: 50.0 mg/kg/injection, schedule: Q01DX009 (ip), vehicle: saline, higher T/C = longer survival) was 7 of 10 and the survivor count (T/C endpoint: median survival time, dose: 50.0 mg/kg/injection, schedule: Q01DX011 (ip), vehicle: Klucel (hydroxypropylcellulose) (HPC), higher T/C = longer survival) was 8 of 10. The survivor count (T/C endpoint: median survival time, dose: 100.0 mg/kg/injection, schedule: Q01DX011 (ip), vehicle: Klucel (hydroxypropylcellulose) (HPC), higher T/C = longer survival) was 1 of 10.

With `COc1ccc2c(=O)cc(-c3ccccc3)n(C)c2c1` the T/C (T/C endpoint: mean tumor weight, dose: 400.0 mg/kg/injection, schedule: Q01DX011 (ip), vehicle: saline, evaluated on day 12, higher T/C = larger tumour) was 127 % of control.

In the case of `ClCC[N+]12CC[N+](CCCl)(CC1)C2`, the T/C [3] is reported as 136 % of control, the survivor count [3] is reported as 10 of 10 and the survivor count (T/C endpoint: median survival time, dose: 200.0 mg/kg/injection, schedule: Q01DX009 (ip), vehicle: saline, higher T/C = longer survival) is reported as 9 of 10. The survivor count (T/C endpoint: median survival time, dose: 400.0 mg/kg/injection, schedule: Q01DX009 (ip), vehicle: saline, higher T/C = longer survival) was 7 of 10.

With `CCO/C=C1\SC(=S)N(c2ccccc2OC)C1=O` the survivor count [1] was 10 of 10, the survivor count [2] was 10 of 10 and the survivor count (T/C endpoint: median survival time, dose: 100.0 mg/kg/injection, schedule: Q01DX009 (ip), vehicle: Klucel (hydroxypropylcellulose) (HPC), higher T/C = longer survival) was 10 of 10. The survivor count (T/C endpoint: median survival time, dose: 200.0 mg/kg/injection, schedule: Q01DX009 (ip), vehicle: Klucel (hydroxypropylcellulose) (HPC), higher T/C = longer survival) was 10 of 10 and the survivor count (T/C endpoint: median survival time, dose: 400.0 mg/kg/injection, schedule: Q01DX009 (ip), vehicle: Klucel (hydroxypropylcellulose) (HPC), higher T/C = longer survival) was 6 of 10.

With `CCOC(=O)C(Br)CC` (configuration not stated) the survivor count (T/C endpoint: mean tumor weight, dose: 222.0 mg/kg/injection, schedule: Q01DX011 (ip), vehicle: other, higher T/C = larger tumour) was 2 of 6, the survivor count (T/C endpoint: mean tumor weight, dose: 333.0 mg/kg/injection, schedule: Q01DX011 (ip), vehicle: other, higher T/C = larger tumour) was 0 of 6 and the survivor count (T/C endpoint: mean tumor weight, dose: 500.0 mg/kg/injection, schedule: Q01DX011 (ip), vehicle: other, higher T/C = larger tumour) was 0 of 6.

With `CC(C)NCC(O)COc1cccc2ccccc12` (configuration not stated) the T/C (T/C endpoint: median survival time, dose: 4.0 mg/kg/injection, schedule: Q01DX009 (ip), vehicle: Klucel (hydroxypropylcellulose) (HPC), evaluated on day 45, higher T/C = longer survival) was 127 % of control [9 of 10 alive], the T/C (T/C endpoint: median survival time, dose: 4.0 mg/kg/injection, schedule: Q01DX009 (ip), vehicle: Klucel (hydroxypropylcellulose) (HPC), evaluated on day 60, higher T/C = longer survival) was 92, 98, 100, 102 % of control and the T/C (T/C endpoint: median survival time, dose: 8.0 mg/kg/injection, schedule: Q01DX009 (ip), vehicle: Klucel (hydroxypropylcellulose) (HPC), evaluated on day 5, higher T/C = longer survival) was 100 % of control. For the same compound, the T/C (T/C endpoint: median survival time, dose: 8.0 mg/kg/injection, schedule: Q01DX009 (ip), vehicle: Klucel (hydroxypropylcellulose) (HPC), evaluated on day 45, higher T/C = longer survival) was 121 % of control, the T/C (T/C endpoint: median survival time, dose: 8.0 mg/kg/injection, schedule: Q01DX009 (ip), vehicle: Klucel (hydroxypropylcellulose) (HPC), evaluated on day 60, higher T/C = longer survival) was 89, 93, 95, 102 % of control and the T/C (T/C endpoint: median survival time, dose: 16.0 mg/kg/injection, schedule: Q01DX009 (ip), vehicle: Klucel (hydroxypropylcellulose) (HPC), evaluated on day 5, higher T/C = longer survival) was 104 % of control. The T/C (T/C endpoint: median survival time, dose: 16.0 mg/kg/injection, schedule: Q01DX009 (ip), vehicle: Klucel (hydroxypropylcellulose) (HPC), evaluated on day 45, higher T/C = longer survival) was 114 % of control, the T/C (T/C endpoint: median survival time, dose: 16.0 mg/kg/injection, schedule: Q01DX009 (ip), vehicle: Klucel (hydroxypropylcellulose) (HPC), evaluated on day 60, higher T/C = longer survival) was 94 [9 of 10 alive], 100, 112 % of control and the T/C (T/C endpoint: median survival time, dose: 32.0 mg/kg/injection, schedule: Q01DX009 (ip), vehicle: Klucel (hydroxypropylcellulose) (HPC), evaluated on day 5, higher T/C = longer survival) was 126 % of control. For the same compound, the T/C (T/C endpoint: median survival time, dose: 32.0 mg/kg/injection, schedule: Q01DX009 (ip), vehicle: Klucel (hydroxypropylcellulose) (HPC), evaluated on day 45, higher T/C = longer survival) was 140 % of control, the T/C (T/C endpoint: median survival time, dose: 32.0 mg/kg/injection, schedule: Q01DX009 (ip), vehicle: Klucel (hydroxypropylcellulose) (HPC), evaluated on day 60, higher T/C = longer survival) was 96 [8 of 10 alive], 103, 113, 149 % of control and the T/C (T/C endpoint: median survival time, dose: 64.0 mg/kg/injection, schedule: Q01DX009 (ip), vehicle: Klucel (hydroxypropylcellulose) (HPC), evaluated on day 5, higher T/C = longer survival) was 92 % of control. The T/C (T/C endpoint: median survival time, dose: 64.0 mg/kg/injection, schedule: Q01DX009 (ip), vehicle: Klucel (hydroxypropylcellulose) (HPC), evaluated on day 45, higher T/C = longer survival) was 93 % of control, the T/C (T/C endpoint: median survival time, dose: 64.0 mg/kg/injection, schedule: Q01DX009 (ip), vehicle: Klucel (hydroxypropylcellulose) (HPC), evaluated on day 60, higher T/C = longer survival) was 93, 100, 106, 120 % of control and the survivor count (T/C endpoint: median survival time, dose: 128.0 mg/kg/injection, schedule: Q01DX009 (ip), vehicle: Klucel (hydroxypropylcellulose) (HPC), higher T/C = longer survival) was 0 of 10 (2×), 1 of 10, 4 of 10. For the same compound, the survivor count (T/C endpoint: median survival time, dose: 128.0 mg/kg/injection, schedule: Q02DX009 (ip), vehicle: Klucel (hydroxypropylcellulose) (HPC), higher T/C = longer survival) was 3 of 10.

`Nc1nc(SCc2ccccc2Cl)c2[nH]cnc2n1` was tested, and the survivor count (T/C endpoint: mean tumor weight, dose: 180.0 mg/kg/injection, schedule: Q01DX011 (ip), vehicle: other, higher T/C = larger tumour) was 0 of 6.
